This is an account of results in the DeepSol protein solubility set.

The data set in a line: soluble on expression in E. coli; label from the status in PepcDB or PDB records.

As to “MGSDKIHHHHHHMSSSPLLQIDDLSIAFRKGDQEQRVVDQLSLAVNAGETLALVGESGSGKSVTALSVLRLLPSPPVVYPQGDIRFAGQSLLHADEKTLRQIRGNRIAMIFQEPMVSLNPLQSIEKQLIEVLSLHCGMRTEAARSEVISCLDRVGIRQAKSRLNDFPHQLSGGERQRVMIAMALLTQPDLLIADEPTTALDVTVQAQILKLLNELKREMGMSLLFITHDLNIVRQLADNVSVMKSGKAVEHNSCQQLFSAPQHPYTRQLLDAEPSGEPLPVEDDGGPLLRVEHLHVSFPIKRGLLRRTVDEKQVVNNISFTLRRGESLGLVGESGSGKSTTGLALLRLIQSRGDIWFDGQPLQGLTRKQMLPFRHRIQVVFQDPNSALNPRLNVEQIIAEGLIVHHKLSKEAQEQRVVAVMQEVGLDPTTRYRYPSEFSGGQRQRIAIARALILQPELLILDEPTSSLDRTVQAQILALLKSLQEKHKIAYLFISHDLQVIRSLCHQVIVLRQGEVVEQGECKQVFTHPAEHYTRELLQFSSGMTETQSA”, the “soluble on expression in E. coli” value is given as “not soluble”. Next, “NTTAPSLLSAYGLNSYTSSNSGSVTKAAESTETAVADSASNKHEANQIRSGDFSIDSAIKKAADKYGVDEKLIRAVIKQESGFNAKAVSGAGAMGLMQLMPSTASSLGVSNPLDPQQNVEGGTKYLKQMLDKYDGNVSMALAAYNAGPGNVDRYGGIPPFQETQNYVKK”: “not soluble”; “MSLGDLKLWYKQPAGTWVEALPVGNSRMGAMVYGGTAREELQLNDETMWGGSPYRNDKPEALESLPQVRELIFAGKNMEAQNLIQENFYAGKHGMPYQTIGSLIIETPGHEKVTDYYRDLDLERAVATTRYKVDGVTFQREVFASFPDKVVVVRLTADRPGKLNFKVGYVSPLEHKVSRKGKKLVLTGKGRDHEGVKGLIRMETQTQADVDGGKVKIDDQNITVEGADSVTLYVSSGTNFINYHDISGNESKKASGYLSLALGRPYSQVLQEHIALYKEQFDRVRLDLGTSERAKLETVKRIELFNEGKDVSLAVLLFQYGRYLLISSSQPGGQPANLQGIWNNKLAAPWDGKYTININTEMNYWPAEVTNLSETHQPLFEMVKELSVTGRETARTMYGCNGWVAHHNTDIWRATGPVDKAFYGTWPMGGAWLTTHLWQHYLYSGDKLFLSEAYPALKGAADFYLDYLTEHPEYGWMVTAPSMSPEHGPSGEDTKKASTIVSGCTMDNQIIFDVLSNALHASRILKMSASYQDSLRSMLNRLAPMQIGKYNQLQEWLEDLDNPNDKHRHISHVYGLFPSNQISPYTHPLLFQAAKNTLLQRGDEATGWSIGWKVNLWARLLDGNHAFRIINNMLKLLPGDEVKEAYPQGRTYPNLFDAHPPFQIDGNFGYTAGVAEMLLQSHDGAVHLLPALPDAWATGSVQGLVARGGFVVDMNWNGVQLDKAKIHSRLGGNLRLRSYVPLREGHHHHHH”: “not soluble”. Next, “MAHHHHHHMNAAAIEVINKLKKEDESNNKCFDCGVPNPDWVSVNHGVFLCINCSGVHRSLGVHISIVRSIKMDIFTDEQLKYLDKGGNKKFQTYLENYGINNFIPERKYRTKAAEHYRKIMKSIVHNSDPPSPLSLDEGKDLINFGQNENMNANEINKNGKNNLYADDQQNFIPSLNTAEILDNVSATFSNFINRAQTMTTNTINNLNKNDLIESTKDTLMNSSSWITEKTKKIAENVSDNPWWEKGQSKIKDVTQNATGWISSISSTVSRTNSNFFFANSEFGATGGPTGTGSVSTNASAEGGQGAAAPDHLASTSSSANADGVSKPSAGENNPAFSRTDTSKSLNKN”: “soluble”; “MEGHKAEEEVLDVLRLNVGGCIYTARRESLCRFKDSMLASMFSGRFPLKTDESGACVIDRDGRLFKYLLDYLHGEVQIPTDEQTRIALQEEADYFGIPYPYSLSDHLANEMETYSLRSNIELKKALTDFCDSYGLVCNKPTVWVLHYLNTSGASCESRIIGVYATKTDGTDAIEKQLGGRIHSKGIFKREAGNNVQYIWSYYSVAELKKMMDAFDAWEGKGVSY”: “not soluble”. Next, “MAITTAASRLGTEPFSEVRRVELRPNSSREQVEAVIKAVYRQVLGNDYILASDRLISAESLLRDRHLTVREFVRSVAKSELYKAKFFHNSFQTRLIELNYKHLLGRAPYDESEVTYHLDLYINEGYDAEIDSYIDSQEYQNSFGENVVPYYRGFDFQAGQNAAGFTRMFRLYRGYANSDTAQVEGSKSRLARELASNKSSSVVGPSGSNNNWSFRASADNAPKQNLGNAVGQSDRVYRIEVAGIRNPGYPKVRRSSTVFIVPYERLLDKMQQIHRQGGKIVSVIST”: “not soluble”.

For the sequence “MSIVRRSNVFDPFADLWADPFDTFRSIVPAISGGGSETAAFANARMDWKETPEAHVFKADLPGVKKEEVKVEVEDGNVLVVSGERTKEKEDKNDKWHRVERSSGKFVRRFRLLEDAKVEEVKAGLENGVLTVTVPKAEVKKPEVKAIQISG”, the “soluble on expression in E. coli” value is listed as “soluble”. Next, “MNLTPAEIVRELSKHIVGQEAAKRAVAVALRNRYRRKKLPPEIAREVTPKNILMIGPTGVGKTEIARRLARLAGAPFVKVEATKFTEVGYVGRDVDSIVRDLAEASYQLVLEEMKKKVEEKALALAEEELATLLRTSVAEVRSGRLDGHFVEVQVEEEVALPFMGVLGGEAFGGMGEMLKGLLPRRPVRRRMTVREAREVLKNQHAERLIDKEELKEEARRRAQEEGIVFIDEIDKVARREGTVGPDVSGEGVQRDLLPIVEGTVVSTRIGPISTEHVLFIAAGAFHVAKPSDLIPELQGRFPIRVELSPLGPEEFYRILKEPENSLIRQYTELLKADGTELVFEDEALWAIAQAAHRANQELEDIGARRLATVLEKVLEEVSFQTDLGRVEITRAYVEKRLEAVFASPDLTRFVL”: “soluble”.
